Record: PubChem BioAssay AID602196 (INSERM, 2012)
Assay: 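Knock-downs that protect lung cancer cells from cisplatin or sensitise them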. Cell system: human A549 lung cancer cells. Reagent: siRNA pair against human genes. Duration: 48 h transfection before cisplatin; time from cisplatin to read-out not stated. Treatment: cisplatin at a dose killing half of control-siRNA cells; exact dose and duration not given. Detection: 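Shift in cisplatin death relative to control siRNA, from -50 (all cells die) to +50 (no cells die); siRNAs harmful on their own scored 0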. Reading the numbers: two-siRNA summed score (-2 to +2): higher = both siRNAs protect from cisplatin killing; -2 means both sensitise. Rule for the call: 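Each siRNA scores 0 if harmful alone by LDH or WST-1, otherwise +1 if it reduces and -1 if it increases cisplatin killing; a gene is active when both siRNAs agree (sum +2 or -2)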. Calls: active = both siRNAs shift cisplatin killing the same way; inactive = no consistent shift, or siRNA harmful alone.
The whole screen tested about 23,000 reagents; this is an unselected part. 455 of them (2%) count as active. 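Active includes both protection and sensitisation; some change values fall well beyond the stated -50 to +50 range.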 Further read-outs or replicates are left out here. The record does not give: the amount of reagent.

PMS2P3: two-siRNA summed score (-2 to +2) = 0; outcome = inactive
VHL: two-siRNA summed score (-2 to +2) = 0; outcome = inactive
ATP1B4: two-siRNA summed score (-2 to +2) = 0; outcome = inactive
ZNF707: two-siRNA summed score (-2 to +2) = 0; outcome = inactive
GLRA3: two-siRNA summed score (-2 to +2) = 0; outcome = inactive
ZPLD1: two-siRNA summed score (-2 to +2) = 0; outcome = inactive
KIF9: two-siRNA summed score (-2 to +2) = -1; outcome = inactive
POU1F1: two-siRNA summed score (-2 to +2) = 0; outcome = inactive
ZNF132: two-siRNA summed score (-2 to +2) = 0; outcome = inactive
AASDH: two-siRNA summed score (-2 to +2) = 0; outcome = inactive
NDUFA13: two-siRNA summed score (-2 to +2) = 0; outcome = inactive
CFHR4: two-siRNA summed score (-2 to +2) = 1; outcome = inactive
TPTEP2: two-siRNA summed score (-2 to +2) = 1; outcome = inactive
MYBL1: two-siRNA summed score (-2 to +2) = 0; outcome = inactive
CSNK1E: two-siRNA summed score (-2 to +2) = 0; outcome = inactive

Part of the list above in another layout.
AASDH
- two-siRNA summed score (-2 to +2): 0
- outcome: inactive

NDUFA13
- two-siRNA summed score (-2 to +2): 0
- outcome: inactive

CFHR4
- two-siRNA summed score (-2 to +2): 1
- outcome: inactive

TPTEP2
- two-siRNA summed score (-2 to +2): 1
- outcome: inactive

Additional entries follow.
TRMT10B: two-siRNA summed score (-2 to +2) = -1; outcome = inactive
LECT2: two-siRNA summed score (-2 to +2) = 0; outcome = inactive
VPS28: two-siRNA summed score (-2 to +2) = 1; outcome = inactive
PRORP: two-siRNA summed score (-2 to +2) = 0; outcome = inactive
STX12: two-siRNA summed score (-2 to +2) = -2; outcome = active
PLEKHH2: two-siRNA summed score (-2 to +2) = 0; outcome = inactive
TMEM131: two-siRNA summed score (-2 to +2) = 1; outcome = inactive
TLCD5: two-siRNA summed score (-2 to +2) = 0; outcome = inactive
FLCN: two-siRNA summed score (-2 to +2) = 0; outcome = inactive
OR2V2: two-siRNA summed score (-2 to +2) = 0; outcome = inactive
GET3: two-siRNA summed score (-2 to +2) = 1; outcome = inactive
LOC442752: two-siRNA summed score (-2 to +2) = 0; outcome = inactive
CD86: two-siRNA summed score (-2 to +2) = 0; outcome = inactive
OAF: two-siRNA summed score (-2 to +2) = 1; outcome = inactive
DDX53: two-siRNA summed score (-2 to +2) = 0; outcome = inactive
CDYL2: two-siRNA summed score (-2 to +2) = 0; outcome = inactive
COPS7B: two-siRNA summed score (-2 to +2) = 0; outcome = inactive
ITGB4: two-siRNA summed score (-2 to +2) = 0; outcome = inactive
SLC2A13: two-siRNA summed score (-2 to +2) = 0; outcome = inactive
SNUPN: two-siRNA summed score (-2 to +2) = 0; outcome = inactive
CDKN2A: two-siRNA summed score (-2 to +2) = 0; outcome = inactive
LOC440988: two-siRNA summed score (-2 to +2) = 0; outcome = inactive
LOC440827: two-siRNA summed score (-2 to +2) = 0; outcome = inactive
ARNT: two-siRNA summed score (-2 to +2) = 1; outcome = inactive
WDCP: two-siRNA summed score (-2 to +2) = 0; outcome = inactive
